## Results from one PubChem assay

Source: PubChem BioAssay AID1159506 (NCATS, 2015).

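Genome-wide siRNA knockdown in TC32 Ewing sarcoma cells, comparing luciferase light from an NR0B1-promoter reporter with a CMV-promoter reporter 48 hours after transfection. Each siRNA was applied at 20 nM. A z-score of the log NR0B1-over-CMV signal, less the median of siRNAs with the same seed; more negative means a stronger specific loss of the NR0B1 reporter.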

This is part of the screen; most of the strongest results are not listed here. Sequences are the guide (antisense) strand, without overhang.

For UUCCGGUUCCACUUGAUUC against PRND the result was seed-corrected z-score -0.2005.
For AUGGGAGUAAGUCAUGAGC against GNB1 the result was seed-corrected z-score -0.9293.
For UUUCCAUGCAGACUUGUCC against LOC728752 the result was seed-corrected z-score 0.373.
For UAAUAUGCAGGGUUAGAGC against LOC728392 the result was seed-corrected z-score -0.1685.
For UUUCCUACAUUCGUGAGAC against ZMYM2 the result was seed-corrected z-score 0.1696.
For AUAUUCACGAAUGUUCUUG against REEP4 the result was seed-corrected z-score -0.4379.
For UUAUAUCUGCCUCUCAUCC against ILDR2 the result was seed-corrected z-score -1.25.
For UCAGAUGCUUGACAUAGCC against RPS17P10 the result was seed-corrected z-score 0.2047.
For UAUACGUUAAGAGAUACCU against FENDRR the result was seed-corrected z-score -0.2641.
For ACACCUUUCAGACCGAACC against TIMP2 the result was seed-corrected z-score 0.5056.
For UCAGUUAAGCCUGCGAGGA against OR8B8 the result was seed-corrected z-score 0.984.
For UAGGUAUGAAUUACAUGUG against ZNF28 the result was seed-corrected z-score -1.344.
For UCUUAGAAUAUGGUAAACC against GDNF the result was seed-corrected z-score 0.1195.
For UAACCUCUUCUCUUGUUCC against DDX41 the result was seed-corrected z-score 0.5406.
For UGCGUGUUGGUGUAAGCCG against HOXB2 the result was seed-corrected z-score -0.1334.
For UGGGUAAACACCAAACUGC against ZNF536 the result was seed-corrected z-score -1.035.
For AAAGUCCUUAUCGACCACC against OBP2B the result was seed-corrected z-score -0.1903.
For AAGUCUACAAAUGUUAAGG against ZNF765 the result was seed-corrected z-score -1.319.
For UGUUUGUUUGGUGCAUUCU against DOLPP1 the result was seed-corrected z-score 0.17.
For UUGAGUUCUAGAACUAUCC against SLC38A11 the result was seed-corrected z-score -0.8377.
For UAUCUACCAGCUUAUACCG against EVPL the result was seed-corrected z-score -0.2372.
For UGACCUGUGACCCUCAUGC against PLEKHN1 the result was seed-corrected z-score -0.0687.
For UAUGUUCAAAAUCGUUUUC against PSEN1 the result was seed-corrected z-score -0.00344.
For UAGGUGACAAACCUGAUGC against ASTL the result was seed-corrected z-score -1.187.
For AUGGGUAAGAAUGUGGUCA against CCDC142 the result was seed-corrected z-score -0.7288.
For AUAGUAUGAAGUUCCAAGG against TRIM38 the result was seed-corrected z-score -0.3662.
For AUGGAUCAUAUAAUGGACC against CKS1BP6 the result was seed-corrected z-score 0.5772.
For UGUCUCUUUAGAGUGGAGG against SEC31B the result was seed-corrected z-score 0.2317.
For UGGGAUCACAGCUUGUUCC against OTUD7B the result was seed-corrected z-score 0.6426.
For UUAGGUACGCUGUUAUUGC against CRIM1 the result was seed-corrected z-score -0.6799.
For UUGGGAAUCAGGAACAGGA against STK25 the result was seed-corrected z-score -0.3608.
For UAGCUAUCUUGAUACUUCC against HHLA2 the result was seed-corrected z-score 0.8789.
For UAAGUUCUGCGGUUGAGUG against RTL1 the result was seed-corrected z-score -0.8505.
For UUCGGUUCUGUCAUAAAGC against OPA1 the result was seed-corrected z-score -0.3466.
For UGUGCGAAUGUUGCAGCCC against PLA2G5 the result was seed-corrected z-score -0.5453.
For UACAGUUGCAGGUUGUGCA against MT4 the result was seed-corrected z-score 0.2113.
For UGUUGUACUGGUCGAUAGC against NPBWR1 the result was seed-corrected z-score -1.008.
For UUUCUAGCUACGAUGCAGG against SRRD the result was seed-corrected z-score -0.8708.
For AUAGUUUGACUCACAAUGC against CCDC91 the result was seed-corrected z-score 0.2055.
For AAAGCGUCAGGGAUGCUCU against C9orf142 the result was seed-corrected z-score 0.2645.
For AAUUAUACUACGCUGAUCC against OSBPL10 the result was seed-corrected z-score -0.03025.
For UUAGAGGUACAGUCUCACU against ATAD3C the result was seed-corrected z-score -0.3296.
For UGAGGUACUCGGUCAAGUC against UQCRC1 the result was seed-corrected z-score -0.7636.
For UUUAUAUAUUCCAGGAUCU against MSRB3 the result was seed-corrected z-score -0.724.
For UCACCAAUGAGCGGCAUGG against SYN1 the result was seed-corrected z-score -1.037.
For UUCCUCAUCACAGUUGCUC against COL26A1 the result was seed-corrected z-score -0.4479.
For UUCCAUUCAAGAGUUCGUG against THPO the result was seed-corrected z-score 0.009792.
For UAAAACAACAUUUACUUCC against CCL11 the result was seed-corrected z-score -0.155.

Some entries from above, unchanged:

- UAUACGUUAAGAGAUACCU against FENDRR : seed-corrected z-score -0.2641
- UCUUAGAAUAUGGUAAACC against GDNF : seed-corrected z-score 0.1195
- UGAGGUACUCGGUCAAGUC against UQCRC1 : seed-corrected z-score -0.7636
- AUAGUUUGACUCACAAUGC against CCDC91 : seed-corrected z-score 0.2055
- AAAGCGUCAGGGAUGCUCU against C9orf142 : seed-corrected z-score 0.2645